Test results published in PubChem BioAssay AID651640 (Broad Institute, 2012).
Several values for one entry are separate records, joined by “and”; a condition that tells them apart may be missing. Identical values can stand only once. Screen size: about 350,000 compounds; about 6,000 (1.7%) were called active. This list was built around the results that the source calls inconclusive (neither active nor inactive); the mix of calls is not that of the screen. Cut-off read from the data, not from the text of the source: active = CPE inhibition above about 20% (passing the limit was not always enough); inconclusive = no clear call, values can overlap the other calls; tested in BHK-21 cells. Some structures have more than one record in an assay (separate samples or runs), and their calls can disagree.

Assay: protection of cells from dengue 2 killing – plate reader, single concentration, primary screen (AID 651640);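 note: 0% = median of neutral control wells and 100% = median of positive control wells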
Conditions: DENV2-infected cells, cytopathic effect rescue, at 9.99 µM, stronger effect = higher value

SMILES | CPE inhibition
COC(=O)C1=C(N)OC2=C(C(=O)CC(C)(C)C2)C1c1ccccc1OC (configuration not stated) | inactive: 0.674%
CO[C@@H]1CN(C)C(=O)c2ccc(NS(=O)(=O)CC(F)(F)F)cc2OC[C@@H](C)N(C(=O)c2ccc3c(c2)OCO3)C[C@H]1C | inactive: -9.55%
COc1cccc(OC)c1Nc1nc(C)nc2c1nnn2Cc1ccccc1Cl | active: 60.3%
O=C(C[C@H]1C=C[C@H](NC(=O)Cc2cccnc2)[C@@H](CO)O1)Nc1ccc(-c2ccccc2)cc1 | inactive: 4.17%
Cc1ccc(C23OCCN2CCn2nc4ccccc4c23)cc1 (configuration not stated) | active: 73.6%
OC[C@@H]1[C@@H](c2ccc(C#Cc3cccnc3)cc2)[C@@H]2CN(Cc3ccccc3F)CCCCN12 | inactive: 4.29%
CN1C(=O)c2cc(NS(=O)(=O)c3ccccc3F)ccc2OC[C@H]2O[C@H](CC(=O)NC3Cc4ccccc4C3)CC[C@H]21 | inactive: -1.78%
NC(=O)[C@@H]1CCCN1C(=O)[C@@H](Cc1ccccc1)NC(=O)[C@H]1O[C@@H](n2ccc(=O)[nH]c2=O)[C@H](O)[C@@H]1O | inconclusive: 30.1%
CC(C)NC(=O)N(C)C[C@H]1OCc2cn(nn2)CCCC(=O)N([C@@H](C)CO)C[C@@H]1C | active: 32.4%
CN(CCOc1ccccc1)C(=O)c1ccc(OC2CCN(C(=O)C3CC3)CC2)cc1 | inactive: 4.59%
C[C@@H]1CCCCO[C@H](CN(C)C(=O)Nc2ccc(C(F)(F)F)cc2)[C@@H](C)CN([C@H](C)CO)C(=O)c2cc(NC(=O)Nc3ccccc3)ccc2O1 | inconclusive: 24.4%
Cc1ccc(N(CC(=O)NC2CCCC2)C(=O)CNC(=O)c2cccs2)cc1F | inconclusive: 31.2%
C[C@H](CO)N1C[C@H](C)[C@H](CN(C)Cc2ccc(Cl)c(Cl)c2)Oc2ccc(NC(=O)Cn3cnnn3)cc2CC1=O | inactive: -6.39%
O=C(Nc1cccc(F)c1)Nc1ccnn1C1CCN(C(=O)c2cscn2)CC1 | inactive: -4.18%
COC(=O)CSc1nc2c(cnn2-c2ccc(F)cc2)c(=O)[nH]1 | inactive: -0.918%
CC(C(=O)Nc1ccccc1)N1CCN(C(=O)c2ccco2)CC1 (configuration not stated) | inconclusive: 23.4%
O=C(COc1coc(CN2CCN(c3ccccc3)CC2)cc1=O)Nc1ccc(F)cc1 | inconclusive: 38.1%
CC(=O)N(C)C[C@H]1Oc2ncc(-c3ccc(C#N)cc3)cc2C(=O)N([C@H](C)CO)C[C@@H]1C | inconclusive: 32.5%
O=C(C[C@H]1C[C@@H]2c3cc(NC(=O)CC4CC4)ccc3O[C@@H]2[C@H](CO)O1)NCc1ccccc1 | active: 97.7%
CC(=O)N(C)C[C@H]1Oc2cc(-c3cccnc3)ccc2S(=O)(=O)N([C@@H](C)CO)C[C@H]1C | inactive: -3.62%
Cc1c(C)c2c(OCC(=O)NCc3cccnc3)cc3c(c2oc1=O)CCC(C)(C)O3 | inconclusive: 57.8%
COc1ccc(-c2nc(SC(CC(=O)NCc3ccccc3)c3ccc(OC)c(OC)c3)n[nH]2)cc1 (configuration not stated) | inconclusive: 23.6%
O=S(=O)(c1cccc2cccnc12)N1CCCCC1 | inactive: -6.56%
O=C(NC1CCC(O)CC1)c1ccc(Br)o1 (configuration not stated) | inconclusive: 27.5%

SMILES | CPE inhibition
C[C@@H]1CN([C@H](C)CO)C(=O)c2cccc(NC(=O)NC3CCCCC3)c2O[C@H]1CN(C)S(=O)(=O)c1ccccc1 | inconclusive: 31.2%
CC(C)CCNC(=O)c1ccc2c(Cl)c3c(nc2c1)CCC3 | inconclusive: 21.1%
CC(=O)C1=C(C)N(Cc2ccc(Cl)cc2)C(=S)NC1c1ccccc1 (configuration not stated) | inactive: 15%
CN1c2ccc(C#Cc3cccnc3)cc2[C@@H]2[C@@H](CCN2C(=O)C2CCCC2)[C@@H]1CO | inconclusive: 23.6%
COc1ccc2c3c(n(C)c2c1)[C@@H](CO)N(C)CC31CCN(CC2CC2)CC1 | active: 48.2%
Cc1ncc([N+](=O)[O-])n1CC(=O)Nc1ccc(F)c(F)c1 | active: 35.2%
Cc1ccc(C(=O)c2c3ccc([N+](=O)[O-])cc3[n+]([O-])n2CCCC(N)=O)cc1 | active: 69.9%
COc1ccc(-c2nnc(COc3ccc(Br)cc3C)o2)cc1 | inactive: 0.59%
COc1ccc(S(=O)(=O)N2CCCCCC2)cc1C(=O)N(C)CC(=O)Nc1cc(C)ccc1C | inconclusive: 25.6%
C[C@H](CO)N1C[C@H](C)[C@@H](CN(C)C(=O)Nc2ccc(F)cc2)OCCCC[C@H](C)Oc2ccc(NC(=O)Nc3ccc4c(c3)OCO4)cc2C1=O | inactive: 9.52%
COc1ccc2c3c(n(C)c2c1)[C@@H](CO)N(C(=O)Nc1ccccc1F)CC31CN(C(=O)c2ccccc2)C1 | inconclusive: 25.4%
CCC(=O)N1[C@H](CO)[C@H]2c3ccccc3N(C(=O)Nc3ccc(Cl)cc3)C[C@H]21 | inconclusive: 42.8%
Cc1cc(NC(=O)c2cccc(S(=O)(=O)N3c4ccccc4CC3C)c2)no1 (configuration not stated) | inconclusive: 35%
O=C(c1ccc(N2CCN(C(=O)c3ccccc3Br)CC2)cc1)c1cccc(F)c1 | inconclusive: 38.2%
O=C(N[C@@H]1CC[C@H](CCn2cc(Cc3ccccc3)nn2)O[C@H]1CO)c1ccccn1 | inactive: -1.46%
Cc1cc(NC(=O)CN2C(=O)NC(CC(C)C)C2=O)no1 (configuration not stated) | inconclusive: 44.4%
CN(C)C(=O)C[C@H]1CC[C@H]2[C@@H](COC[C@H](O)CN2S(=O)(=O)c2ccccc2)O1 | inactive: -5.17%
COc1ccc(C2CC(=O)C(c3cccc(OC)c3)=CN2Cc2ccccc2)cc1 (configuration not stated) | inconclusive: 26.6%
COc1ccc(NC(=O)CCn2c(=O)c3cccn3c3ccccc32)cc1 | inconclusive: 30.7%
CCC(=O)N(C)C[C@@H]1Oc2ncc(-c3ccc(C#N)cc3)cc2C(=O)N([C@@H](C)CO)C[C@@H]1C | inconclusive: 28.5%
C[C@H]1CN([C@@H](C)CO)C(=O)c2cc(NC(=O)NC3CCCCC3)ccc2O[C@H]1CN(C)S(=O)(=O)c1ccc(Cl)cc1 | inconclusive: 38.3%
O=C(O)c1ccc(N=NN2CCCCCC2)cc1 | active: 112%
C/C=C/c1ccc2c(c1)O[C@H](CN(C)Cc1cncnc1)[C@H](C)CN([C@H](C)CO)S2(=O)=O | inconclusive: 20.4%
O=C(Nc1cc(Cl)ccc1Cl)c1cc(-c2ccco2)on1 | inactive: -4.91%

SMILES | CPE inhibition
Cc1ccc2oc3c(SCc4nc5ccccc5[nH]4)nc(C)nc3c2c1 | inconclusive: 23.3%
C[C@@H]1CN([C@H](C)CO)C(=O)c2cc(C3=CCCC3)cnc2O[C@@H]1CN(C)C(=O)Nc1ccccc1 | active: 34.3%
CCN(CC)CCOc1ccc(/C(=C(\Cl)c2ccccc2)c2ccccc2)cc1 | inconclusive: 54.4%
C=CCNc1nc2cc(-c3ccccc3C)sc2c(=O)n1C | inconclusive: 24.1%
CC(=O)NCc1ccc(-c2csc(NC(=O)CCc3nc4ccccc4c(=O)[nH]3)n2)s1 | inconclusive: 21.4%
O=C(c1cccnc1)N1CC2(C1)[C@H](c1ccccc1)[C@H](CO)N2C(=O)C1CCC1 | active: 44.3%
COc1ccc(CNC(=O)C2CC(c3ccccc3[N+](=O)[O-])=NO2)cc1 (configuration not stated) | inconclusive: 42.4%
C[C@H]1CN([C@@H](C)CO)C(=O)Cc2cc(NS(=O)(=O)c3cccs3)ccc2O[C@@H]1CN(C)C(=O)Nc1cccc2ccccc12 | inconclusive: 25%
O=C(Nc1ccccc1)N[C@@H]1CC[C@H](CCNS(=O)(=O)c2ccccc2F)O[C@H]1CO | inactive: 2.38%
Cc1ccc(NC(=O)CN(C)C(=O)c2cc(-c3ccco3)nc3ccccc23)cc1 | inconclusive: 31.7%
CC(=O)Nc1ccc(NC(=O)C(C)OC(=O)c2ccc(S(=O)(=O)N3CCCCC3)cc2)cc1 (configuration not stated) | inactive: 2.94%
C=CCn1c(SCC(=O)NC(N)=O)nnc1-c1cc2c(s1)CCC(CC)C2 (configuration not stated) | active: 21.4%
C[C@H](CO)N1C[C@H](C)[C@@H](CN(C)S(=O)(=O)c2cn(C)cn2)Oc2c(NC(=O)NC3CCCCC3)cccc2C1=O | inconclusive: 21.7%
COCc1nnc(NS(=O)(=O)c2ccc(OC)cc2)s1 | inconclusive: 28.3%
C[C@H](CO)N1C[C@H](C)[C@H](CN(C)C(=O)Nc2ccc(-c3cccs3)cc2)OCc2cn(nn2)CCCC1=O | inactive: -1.89%
C[C@@H]1CCCCO[C@@H](CN(C)Cc2ccc(C(F)(F)F)cc2)[C@@H](C)CN([C@H](C)CO)C(=O)c2cc(NC(=O)C3CCCCC3)ccc2O1 | active: 31.4%
CC(C)NC(=O)N1[C@@H]2c3ccc(-c4ccccc4F)c(=O)n3C[C@@H]2[C@@H](CO)[C@@H]1C(=O)NC1CCC1 | inactive: 11.1%
Nc1ncnc(Nc2cccc(F)c2)n1 | inconclusive: 33.2%
O=C(NCc1ccccc1)C1CC(=O)N(C2CCCCC2)C1 (configuration not stated) | inactive: -6.46%
O=C(NC1Cc2ccccc2C1)[C@H]1[C@H](CO)[C@H]2Cn3c(ccc(C4=CCCCC4)c3=O)[C@H]2N1CC1CC1 | active: 39.5%
COc1ccc(NC(=O)N(C)C[C@H]2Oc3c(NS(=O)(=O)c4ccc(OC)cc4)cccc3C(=O)N([C@H](C)CO)C[C@@H]2C)cc1 | inactive: -11.6% and active: 28.2%
C[C@@H]1CCCCO[C@H](CN(C)Cc2ccc(C(F)(F)F)cc2)[C@@H](C)CN([C@@H](C)CO)C(=O)c2cc(NC(=O)CCC(F)(F)F)ccc2O1 | active: 20.5%
COc1cc2c(c(Br)c1N)-c1cc(Br)c(N)cc1C2=O | inactive: -11.2%
CCN(CCn1cccn1)C(=O)c1ccc2nc(Cc3ccc(OC)cc3)oc2c1 | inconclusive: 34.1%
